The results in this text go back to publication PMC7862700.

By UniProt entry, the sequences of proteins in these tests, tags left out. Where a name states a change or a piece, a line headed by the entry shows the natural chain unless it says otherwise.
UniProt O43186: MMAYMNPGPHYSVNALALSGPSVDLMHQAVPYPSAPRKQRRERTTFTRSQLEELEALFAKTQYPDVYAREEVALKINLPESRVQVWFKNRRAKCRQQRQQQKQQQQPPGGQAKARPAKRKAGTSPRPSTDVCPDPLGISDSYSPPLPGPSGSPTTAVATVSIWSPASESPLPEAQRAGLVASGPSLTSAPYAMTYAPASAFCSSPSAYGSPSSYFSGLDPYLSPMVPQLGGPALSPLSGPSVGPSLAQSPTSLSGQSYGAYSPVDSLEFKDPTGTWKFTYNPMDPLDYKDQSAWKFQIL

Only a part is listed here, and it is no random draw. At the low end of the ranking the order means little.

Common to all, as to experiment: DAPPL (digital affinity profiling via proximity ligation, sequencing)
Common to all, as to settings: 10 mM Tris-HCl pH 7.5, 50 mM NaCl, 1 mM DTT, 4% glycerol, room temperature, 30 min; GST-TFs on glutathione beads, 16-mer random dsDNA library, 0.1% …; high values mean tight binding; double strand, one strand shown; scale: fold enrichment (6-mer frequency, TF over GST control)

Assay [1] addresses T1, FEV (UniProt Q99581).
T1 sequence: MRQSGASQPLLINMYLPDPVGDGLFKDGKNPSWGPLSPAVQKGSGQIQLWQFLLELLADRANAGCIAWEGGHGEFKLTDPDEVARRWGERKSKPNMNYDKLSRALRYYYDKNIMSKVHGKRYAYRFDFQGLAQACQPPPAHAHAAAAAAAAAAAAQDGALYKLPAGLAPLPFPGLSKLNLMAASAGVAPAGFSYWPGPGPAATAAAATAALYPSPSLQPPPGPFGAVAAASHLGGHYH

For assay [2], the target named is CRX (UniProt O43186).
Assay [3] has as its target T2, ELF5 (UniProt Q9UKW6-2).
T2 sequence: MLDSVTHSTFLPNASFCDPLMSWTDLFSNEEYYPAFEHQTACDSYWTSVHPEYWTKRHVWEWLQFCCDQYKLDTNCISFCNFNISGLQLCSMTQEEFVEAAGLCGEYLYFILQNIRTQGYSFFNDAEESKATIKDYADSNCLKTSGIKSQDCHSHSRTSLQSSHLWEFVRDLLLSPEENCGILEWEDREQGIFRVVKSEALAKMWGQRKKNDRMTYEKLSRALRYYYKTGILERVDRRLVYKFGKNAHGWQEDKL

As to GAGAAT, the binding signal in assay [1] came out at 0.672; in assay [2], 0.913; in assay [3], 0.718.

Consider CAACCG, for which the binding signal in assay [1] was 1.28; in assay [2], 0.702; in assay [3], 0.98.

Turning to TGGTCG, the binding signal in assay [1] was 0.851; in assay [2], 0.649; in assay [3], 0.906.

AACCGA: the binding signal in assay [1] was found to be 0.985; in assay [2] it was 0.997; in assay [3], 0.938.

Consider TGGCGC, for which the binding signal in assay [1] is 0.91; in assay [2] it was 0.713; in assay [3], 0.867.

Regarding TGTGGC, the binding signal turned out to be 1.13 in assay [1], 0.833 in assay [2] and 0.902 in assay [3].

Take ATTTGT: the binding signal amounted to 1.34 in assay [1], 1.58 in assay [2] and 1.26 in assay [3].

Regarding TCCAAG, the binding signal in assay [1] turned out to be 1.03; in assay [2], 1.2; in assay [3], 1.07.

In the case of GTTGTC, the binding signal in assay [1] turned out to be 0.855; in assay [2], 0.563; in assay [3] it was 0.923.

As for TAGACT, the binding signal in assay [1] stood at 0.934; in assay [2], 1.27; in assay [3], 0.909.

Turning to GTGACT, the binding signal in assay [1] is 0.977; in assay [2], 0.729; in assay [3], 0.906.

Regarding TAGGCC, the results for the binding signal in assay [1], in assay [2] and in assay [3] were 1.05, 1.21 and 0.921, respectively.

Turning to CATCCA, the binding signal in assay [1] came out at 0.934; in assay [2] it was 0.873; in assay [3], 0.932.

On to TCGAGC, for which the figures for the binding signal in assay [1], in assay [2] and in assay [3] were 0.946, 1.01 and 0.877, respectively.

For GCTAGA, the binding signal in assay [1] was 0.945; in assay [2], 1.15; in assay [3], 0.995.

Regarding GGGCAT, the binding signal in assay [1] stood at 0.883; in assay [2], 0.769; in assay [3], 0.83.

As for CCAACG, the binding signal in assay [1] turned out to be 1.14; in assay [2], 0.882; in assay [3], 1.1.

Regarding CAGAAA, the binding signal was found to be 0.935 in assay [1], 1.07 in assay [2] and 0.887 in assay [3].

Regarding GCCTAG, the binding signal in assay [1] came out at 0.909; in assay [2], 0.976; in assay [3], 0.848.

Turning to GCGCGT, the values for the binding signal in assay [1], in assay [2] and in assay [3] were 0.832, 0.636 and 0.795, respectively.

As to CGAAGG, the binding signal in assay [1] worked out at 0.942; in assay [2] it was 0.919; in assay [3], 0.872.

As to TGTCAG, the binding signal in assay [1] was 0.813; in assay [2] it was 0.734; in assay [3], 0.828.

Turning to AGCGAA, the binding signal in assay [1] amounted to 0.873; in assay [2], 0.839; in assay [3] it was 0.872.

Turning to ACAAGG, the binding signal in assay [1] worked out at 0.934; in assay [2], 0.728; in assay [3], 1.14.

For the sequence CTGAGG, the binding signal in assay [1] turned out to be 0.74; in assay [2], 0.707; in assay [3], 0.813.

As for GGTCCA, the binding signal in assay [1] was 0.858; in assay [2] it was 0.599; in assay [3], 0.863.

Regarding TCATAG, the figures for the binding signal in assay [1], in assay [2] and in assay [3] were 0.837, 0.918 and 0.84, respectively.

Regarding GTGCGC, the binding signal in assay [1] turned out to be 0.96; in assay [2] it was 0.698; in assay [3], 0.919.

In the case of GACTTG, the values for the binding signal in assay [1], in assay [2] and in assay [3] were 0.818, 0.717 and 0.883, respectively.

As for CTCCAG, the binding signal in assay [1] was 1.13; in assay [2] it was 1.1; in assay [3], 1.15.
